From the supplement of paper PMC9744312 come the findings set out here.

Counter-ions that a name gives are not always drawn. Some of the results follow. Single values of this set are uncertain.

This assay deals with Peyronie's disease tunica albuginea primary fibroblasts. Nature of the assay: inhibition of TGF-beta1-induced alpha-SMA expression (myofibroblast transformation), relative to TGF-beta1-only and untreated controls; higher = stronger inhibition of myofibroblast transformation. The following applies: 10 µM; TGF-beta1 10 ng/mL; 72 h.
On to `Oc1ccc(OCc2ccccc2)cc1` [Monobenzone], for which the “inhibition of TGF-beta1-induced alpha-SMA expression” value (“inhibition” for short) turned out to be 33.6%.

Consider `CNC(=O)[C@H](Cc1c[nH]c2ccccc12)NC(=O)[C@@H](CC(=O)NO)CC(C)C` [Ilomastat (GM6001, Galardin)], for which the “inhibition” value came out at 30.4%.

For the compound `C[C@H]1C[C@H]2[C@@H]3CCC4=CC(=O)C=C[C@]4(C)[C@@]3(F)[C@@H](O)C[C@]2(C)[C@@]1(O)C(=O)CO` [Betamethasone], the “inhibition” value came to 61.4%.

Take `CC(=O)Oc1c(C)c(C)c2c(c1C)CCC(C)(CCC[C@H](C)CCC[C@H](C)CCCC(C)C)O2` (stereo partly specified) [Vitamin E Acetate]: the “inhibition” value is -8.73%.

In the case of `O=C(NCCO[N+](=O)[O-])c1cccnc1` [Nicorandil], the “inhibition” value was -11.8%.

Regarding `Cc1ccc(Cl)c(Nc2ccccc2C(=O)O)c1Cl` [Meclofenamate Sodium], the “inhibition” value turned out to be 36.5%.

As to `C=C1/C(=C\C=C2/CCC[C@]3(C)[C@@H]([C@H](C)/C=C/[C@@H](O)C4CC4)CC[C@@H]23)C[C@@H](O)C[C@@H]1O` [Calcipotriene], the “inhibition” value was determined as 23.3%.

Take `CCCN(CCC)C(=O)C1=Cc2ccc(-c3ccc(C(=O)N4CCCC4)cc3)cc2N=C(N)C1` [Motolimod (VTX-2337)]: the “inhibition” value was found to be 33.8%.

Regarding `CN(C)CCOc1ccc(/C(=C(/CCCl)c2ccccc2)c2ccccc2)cc1` [Toremifene Citrate], the “inhibition” value worked out at 7.22%.

As to `CCN1CCN(C(=O)N[C@@H](C(=O)N[C@@H]2C(=O)N3C(C(=O)O)=C(CSc4nnnn4C)CS[C@H]23)c2ccc(O)cc2)C(=O)C1=O` [Cefoperazone], the “inhibition” value was determined as 7.82%.

Regarding `CCN1CCN(C(=O)N[C@@H](C(=O)N[C@@H]2C(=O)N3C(C(=O)O)=C(CSc4nnnn4C)CS[C@H]23)c2ccc(O)cc2)C(=O)C1=O` [Cefoperazone sodium], the “inhibition” value came out at 21.7%.

For the compound `CO[C@@]12[C@H](COC(N)=O)C3=C(C(=O)C(C)=C(N)C3=O)N1C[C@@H]1N[C@@H]12` [Mitomycin C], the “inhibition” value amounted to 84.9%.

As to `CC1=Nc2ccc(Cl)cc2S(=O)(=O)N1` [Diazoxide], the “inhibition” value turned out to be 20.9%.

As for `CCn1nc(C(=O)O)c(=O)c2cc3c(cc21)OCO3` [Cinoxacin], the “inhibition” value was 10.4%.

With `CCOc1nc2cccc(C(=O)O)c2n1Cc1ccc(-c2ccccc2-c2noc(=O)[nH]2)cc1` [Azilsartan], the “inhibition” value was found to be 8.26%.

Take `COCCOC(=O)C1=C(C)NC(C)=C(C(=O)OC/C=C/c2ccccc2)C1c1cccc([N+](=O)[O-])c1` (stereo unspecified) [Cilnidipine]: the “inhibition” value is -18.9%.

With `COc1cc(O)c(C(=O)Nc2nc(C(=O)NCCN(C(C)C)C(C)C)cs2)cc1OC` [Acotiamide hydrochloride], the “inhibition” value is -2.18%.

Turning to `COc1cc(O)c(C(=O)Nc2nc(C(=O)NCCN(C(C)C)C(C)C)cs2)cc1OC` [Acotiamide], the “inhibition” value is 37.9%.

Consider `CC(C)(Oc1ccc(C(=O)c2ccc(Cl)cc2)cc1)C(=O)O` [Fenofibric acid], for which the “inhibition” value was 0.917%.

With `O=C(O)/C=C/c1ccc(Cn2ccnc2)cc1` [Ozagrel sodium], the “inhibition” value is -14.7%.

Take `O=C(O)/C=C/c1ccc(Cn2ccnc2)cc1` [Ozagrel HCl]: the “inhibition” value was 6.33%.

Consider `O=C(O)/C=C/c1ccc(Cn2ccnc2)cc1` [Ozagrel], for which the “inhibition” value is 28.2%.

Consider `COc1cc2nccc(Oc3ccc(NC(=O)C4(C(=O)Nc5ccc(F)cc5)CC4)cc3)c2cc1OC`, for which the “inhibition” value is -252%.

As for `COc1cc2nccc(Oc3ccc(NC(=O)C4(C(=O)Nc5ccc(F)cc5)CC4)cc3)c2cc1OC` [Cabozantinib malate (XL184)], the “inhibition” value was -59.1%.

Turning to `CCCc1nc(C)c2c(=O)nc(-c3cc(S(=O)(=O)N4CCN(CC)CC4)ccc3OCC)[nH]n12` [Vardenafil HCl Trihydrate], the “inhibition” value stood at 25.6%.

In the case of `OC1(c2ccc(Cl)c(C(F)(F)F)c2)CCN(CCCC(c2ccc(F)cc2)c2ccc(F)cc2)CC1` [Penfluridol], the “inhibition” value is above 100%.

Turning to `C[C@@H]1C[C@H]2[C@@H]3CCC4=CC(=O)C=C[C@]4(C)[C@@]3(F)[C@@H](O)C[C@]2(C)[C@@]1(O)C(=O)CO` [Dexamethasone (DHAP)], the “inhibition” value is 67.5%.

Consider `NC(=NCCCCCCN=C(N)N=C(N)Nc1ccc(Cl)cc1)N=C(N)Nc1ccc(Cl)cc1` [Chlorhexidine?2HCl], for which the “inhibition” value was above 100%.

With `O=C(O)COC(=O)Cc1ccccc1Nc1c(Cl)cccc1Cl` [Aceclofenac], the “inhibition” value was determined as 92.6%.

Regarding `Cc1cnc(NC(=O)C2=C(O)c3ccccc3S(=O)(=O)N2C)s1` [Meloxicam], the “inhibition” value came out at 16.4%.

On to `O=C(O)CCCc1ccccc1` [Sodium Phenylbutyrate], for which the “inhibition” value is -23%.

Consider `CC1(C)O[C@@H]2C[C@H]3[C@@H]4CCC5=CC(=O)C=C[C@]5(C)[C@@]4(F)[C@@H](O)C[C@]3(C)[C@]2(C(=O)CO)O1` [Triamcinolone Acetonide], for which the “inhibition” value was 39.4%.

On to `C[C@H]1CN(C[C@H](Cc2ccccc2)C(=O)NCC(=O)O)CC[C@@]1(C)c1cccc(O)c1` [Alvimopan dihydrate], for which the “inhibition” value was determined as 15.5%.

In the case of `Cc1nnc(NS(=O)(=O)c2ccc(N)cc2)s1` [Sulfamethizole], the “inhibition” value was -10.3%.

Regarding `COc1cc(NS(C)(=O)=O)ccc1Nc1c2ccccc2nc2ccccc12` [Amsacrine hydrochloride], the “inhibition” value is 96.3%.

As for `O=C1C2CC3CC1CC(O)(C3)C2` [Idramantone], the “inhibition” value came out at 17.6%.

As to `CCN1CCN(c2cc3c(cc2F)c(=O)c(C(=O)O)cn3C2CC2)CC1` [Enrofloxacin], the “inhibition” value is 22.3%.

Consider `CO/N=C(\C(=O)N[C@@H]1C(=O)N2C(C(=O)O)=C(CSc3nc(=O)c(O)nn3C)CS[C@H]12)c1csc(N)n1` [Ceftriaxone Sodium], for which the “inhibition” value was above 100%.

Turning to `CO/N=C(\C(=O)N[C@@H]1C(=O)N2C(C(=O)O)=C(CSc3nc(=O)c(O)nn3C)CS[C@H]12)c1csc(N)n1` [Ceftriaxone Sodium Trihydrate], the “inhibition” value turned out to be 0.683%.

On to `NCCCC[C@H](N[C@@H](CCc1ccccc1)C(=O)O)C(=O)N1CCC[C@H]1C(=O)O` [Lisinopril], for which the “inhibition” value stood at 63.8%.

For `CC(C)(C)NC[C@H](O)COc1nsnc1N1CCOCC1` [Timolol Maleate], the “inhibition” value is -28.4%.

As for `Cc1ccc(C(=O)Nc2ccc(CN3CCN(C)CC3)c(C(F)(F)F)c2)cc1C#Cc1cnc2cccnn12`, the “inhibition” value is -15%.

For `O=C(Nc1cccc2c(=O)cc(-c3nnn[nH]3)oc12)c1ccc(OCCCCc2ccccc2)cc1` [Pranlukast], the “inhibition” value was 11.6%.

As to `CCOC(=O)[C@H](CCc1ccccc1)N[C@H]1CCc2ccccc2N(CC(=O)O)C1=O` [Benazepril HCl], the “inhibition” value worked out at 23.4%.

For `COC1=C(OC)C(=O)C(CCCCCCCCCCO)=C(C)C1=O` [Idebenone], the “inhibition” value stood at 29%.

As to `CC(COc1ccccc1)N(CCCl)Cc1ccccc1` (stereo unspecified) [Phenoxybenzamine HCl], the “inhibition” value amounted to 3.26%.

In the case of `Nc1ncn([C@@H]2O[C@H](CO)[C@@H](O)[C@H]2O)c(=O)n1` [Azacitidine], the “inhibition” value amounted to 25.9%.

With `COc1ccc(CN(CCN(C)C)c2ccccn2)cc1` [Pyrilamine Maleate], the “inhibition” value is -0.91%.

In the case of `CCCNC(C)C(=O)Nc1ccccc1C` (stereo unspecified) [Prilocaine hydrochloride], the “inhibition” value was found to be 0.331%.

In the case of `CCCNC(C)C(=O)Nc1ccccc1C` (stereo unspecified) [Prilocaine], the “inhibition” value is -0.0584%.

`COc1cc(/C=C/C(=O)N2CCN(CC(=O)N3CCCC3)CC2)cc(OC)c1OC` [Cinepazide maleate]: the “inhibition” value is 13.4%.

Consider `Cc1c(-c2ccnn2C)cc(C(=O)NCc2ccc(S(C)(=O)=O)cn2)c(=O)n1-c1cccc(C(F)(F)F)c1` [Alvelestat (AZD9668)], for which the “inhibition” value came out at 1.45%.

As to `CC(=O)c1ccc(S(=O)(=O)NC(=O)NC2CCCCC2)cc1` [Acetohexamide], the “inhibition” value came to 32.5%.

With `CCCCC[C@H](O)/C=C/[C@@H]1[C@@H](C/C=C\CCCC(=O)O)[C@@H](O)C[C@H]1O` [Dinoprost tromethamine], the “inhibition” value stood at 9.12%.

As to `CCOC(=O)c1ccc(OC(=O)CCCCCNC(=N)N)cc1` [Gabexate Mesylate], the “inhibition” value came out at 4.91%.

As for `O=C(NC1CCN(CCCCC2(C(=O)NCC(F)(F)F)c3ccccc3-c3ccccc32)CC1)c1ccccc1-c1ccc(C(F)(F)F)cc1` [Lomitapide], the “inhibition” value was above 100%.

In the case of `O=C(NC1CCN(CCCCC2(C(=O)NCC(F)(F)F)c3ccccc3-c3ccccc32)CC1)c1ccccc1-c1ccc(C(F)(F)F)cc1` [Lomitapide Mesylate], the “inhibition” value is above 100%.

For the compound `CCCN[C@H]1CCc2nc(N)sc2C1` [Pramipexole dihydrochloride], the “inhibition” value was found to be 24.8%.

On to `CCCN[C@H]1CCc2nc(N)sc2C1` [Pramipexole], for which the “inhibition” value was found to be 7.21%.

Turning to `CCCN[C@H]1CCc2nc(N)sc2C1` [Pramipexole 2HCl Monohydrate], the “inhibition” value was 43.5%.

Take `CC(C)(C)Cn1c(N)nc2ccc(-c3[nH]c(C(C)(C)C)nc3-c3ccc(F)cc3)nc21`: the “inhibition” value was -4.55%.

With `COc1cccc(-c2ccc(NC(=O)C3=C(C(=O)O)CCC3)c(F)c2)c1` [Vidofludimus], the “inhibition” value was found to be 26.9%.

In the case of `c1ccc(C2CN3CCSC3=N2)cc1` (stereo unspecified) [Tetramisole HCl], the “inhibition” value is -3.78%.

For `C=C1c2cccc(O)c2C(=O)C2=C(O)[C@]3(O)C(=O)C(C(N)=O)=C(O)[C@@H](N(C)C)[C@@H]3[C@@H](O)[C@H]12` [Methacycline HCl], the “inhibition” value is -10.4%.

As for `Cn1c(=O)cc(N2CCC[C@@H](N)C2)n(Cc2cc(F)ccc2C#N)c1=O` [Trelagliptin succinate], the “inhibition” value was 60.3%.

On to `Cn1c(=O)cc(N2CCC[C@@H](N)C2)n(Cc2cc(F)ccc2C#N)c1=O` [Trelagliptin], for which the “inhibition” value was determined as 58.5%.

With `C[N+](C)(C)CCO.O=C([O-])C(O)C(O)C(=O)O` (stereo unspecified) [Choline bitartrate], the “inhibition” value was -5.18%.

On to `CO[C@H]1/C=C/O[C@@]2(C)Oc3c(C)c(O)c4c(c3C2=O)C2=NC3(CCN(CC(C)C)CC3)NC2=C(NC(=O)/C(C)=C\C=C\[C@H](C)[C@H](O)[C@@H](C)[C@@H](O)[C@@H](C)[C@H](OC(C)=O)[C@@H]1C)C4=O` [Rifabutin], for which the “inhibition” value was 7.93%.

With `c1cnc2cc3c(cc2n1)[C@@H]1CNC[C@H]3C1` [Varenicline Tartrate], the “inhibition” value came to 14.9%.

Consider `CC(=O)OCC(COC(C)=O)OC(C)=O` [Triacetin], for which the “inhibition” value is -12.4%.

Turning to `O=C(CCCCCCNC(=O)c1cnc(N(c2ccccc2)c2ccccc2)nc1)NO` [Ricolinostat (ACY-1215)], the “inhibition” value was 95.8%.
